Each structure is given as a SMILES string.

The subject of this data set is Vero cell line. Nature of the data set: Cytotoxicity on Vero cells (MTT). In kind it is cell-based, monkey. The note with it: cytotoxic/antiplasmodial activity ratio. The procedure:
The cells were cultured in MEM medium (Dutscher, Brumath, France) supplemented with 10% fetal bovine serum (Dutscher), 0.7 mM glutamine and 100 μg/mL gentamicin. The cells were seeded at 10^4 cells per well in a 96-well plates and incubated during 24 h. Then, cells were incubated for additional 48 h with the drugs. […] Subsequently, DMSO was added to the wells containing the cells and MTT to dissolve the formed crystals. The plates were then read to determine the absorbance at wavelength of 540 nm (µQuant, BioTek, Illkirch, France). Cell proliferation was calculated from at least three independent experiments using GraphPad Prism software 7 (GraphPad Software, San Diego, CA, USA). The cytotoxic/antiplasmodial activity ratio corresponds to the selectivity index.
On to `C[C@@H]1CCC2[C@@H](C)[C@@H](OCCCn3cc[n+](Cc4ccccc4)[c]3[Au-][c]3n(CCCO[C@H]4O[C@@H]5O[C@@]6(C)CCC7[C@H](C)CCC([C@H]4C)[C@]75OO6)cc[n+]3Cc3ccccc3)O[C@@H]3O[C@@]4(C)CCC1[C@@]23OO4.[Cl-]` (some centres unmarked) [Aubis(3-Bn)], for which the “Selectivity Index Vero Cells/P. falciparum” value turned out to be 14.

For the compound `C[C@@H]1CCC2[C@@H](C)[C@@H](OCCCn3cc[n+](C)[c]3[Au-][c]3n(CCCO[C@H]4O[C@@H]5O[C@@]6(C)CCC7[C@H](C)CCC([C@H]4C)[C@]75OO6)cc[n+]3C)O[C@@H]3O[C@@]4(C)CCC1[C@@]23OO4.O=[N+]([O-])[O-]` (some centres unmarked) [Aubis(3-Me)], the “Selectivity Index Vero Cells/P. falciparum” value is 143.

With `Cc1cc(C)c(-[n+]2ccn(CCCO[C@H]3O[C@@H]4O[C@@]5(C)CCC6[C@H](C)CCC([C@H]3C)[C@]64OO5)[c]2[Au-][c]2n(CCCO[C@H]3O[C@@H]4O[C@@]5(C)CCC6[C@H](C)CCC([C@H]3C)[C@]64OO5)cc[n+]2-c2c(C)cc(C)cc2C)c(C)c1.[Cl-]` (some centres unmarked) [Aubis(3-Mes)], the “Selectivity Index Vero Cells/P. falciparum” value amounted to 8. With `C[C@@H]1CCC2[C@@H](C)[C@@H](OCCCn3cc[n+](-c4ccc5ccccc5n4)[c]3[Au-][c]3n(CCCO[C@H]4O[C@@H]5O[C@@]6(C)CCC7[C@H](C)CCC([C@H]4C)[C@]75OO6)cc[n+]3-c3ccc4ccccc4n3)O[C@@H]3O[C@@]4(C)CCC1[C@@]23OO4.[Cl-]` (some centres unmarked) [Aubis(3-Quin)], the “Selectivity Index Vero Cells/P. falciparum” value is on record as 52. In the case of `CC(C)[n+]1ccn(CCCO[C@H]2O[C@@H]3O[C@@]4(C)CCC5[C@H](C)CCC([C@H]2C)[C@]53OO4)[c]1[Au-][c]1n(CCCO[C@H]2O[C@@H]3O[C@@]4(C)CCC5[C@H](C)CCC([C@H]2C)[C@]53OO4)cc[n+]1C(C)C.[Cl-]` (some centres unmarked) [Aubis(3-iPr)], the “Selectivity Index Vero Cells/P. falciparum” value amounted to 54. Take `C[C@@H]1CCC2[C@@H](C)[C@@H](OCCCCn3cc[n+](Cc4ccccc4)[c]3[Au-][c]3n(CCCCO[C@H]4O[C@@H]5O[C@@]6(C)CCC7[C@H](C)CCC([C@H]4C)[C@]75OO6)cc[n+]3Cc3ccccc3)O[C@@H]3O[C@@]4(C)CCC1[C@@]23OO4.[Cl-]` (some centres unmarked) [Aubis(4-Bn)]: the “Selectivity Index Vero Cells/P. falciparum” value is given as 18.

`C[C@@H]1CCC2[C@@H](C)[C@@H](OCCCCn3cc[n+](C)[c]3[Au-][c]3n(CCCCO[C@H]4O[C@@H]5O[C@@]6(C)CCC7[C@H](C)CCC([C@H]4C)[C@]75OO6)cc[n+]3C)O[C@@H]3O[C@@]4(C)CCC1[C@@]23OO4.[Cl-]` (some centres unmarked) [Aubis(4-Me)]: the “Selectivity Index Vero Cells/P. falciparum” value is on record as 62. With `Cc1cc(C)c(-[n+]2ccn(CCCCO[C@H]3O[C@@H]4O[C@@]5(C)CCC6[C@H](C)CCC([C@H]3C)[C@]64OO5)[c]2[Au-][c]2n(CCCCO[C@H]3O[C@@H]4O[C@@]5(C)CCC6[C@H](C)CCC([C@H]3C)[C@]64OO5)cc[n+]2-c2c(C)cc(C)cc2C)c(C)c1.[Cl-]` (some centres unmarked) [Aubis(4-Mes)], the “Selectivity Index Vero Cells/P. falciparum” value is reported as 18. With `C[C@@H]1CCC2[C@@H](C)[C@@H](OCCCCCn3cc[n+](Cc4ccccc4)[c]3[Au-][c]3n(CCCCCO[C@H]4O[C@@H]5O[C@@]6(C)CCC7[C@H](C)CCC([C@H]4C)[C@]75OO6)cc[n+]3Cc3ccccc3)O[C@@H]3O[C@@]4(C)CCC1[C@@]23OO4.[Cl-]` (some centres unmarked) [Aubis(5-Bn)], the “Selectivity Index Vero Cells/P. falciparum” value is listed as 8. Take `C[C@@H]1CCC2[C@@H](C)[C@@H](OCCCCCn3cc[n+](C)[c]3[Au-][c]3n(CCCCCO[C@H]4O[C@@H]5O[C@@]6(C)CCC7[C@H](C)CCC([C@H]4C)[C@]75OO6)cc[n+]3C)O[C@@H]3O[C@@]4(C)CCC1[C@@]23OO4.[Cl-]` (some centres unmarked) [Aubis(5-Me)]: the “Selectivity Index Vero Cells/P. falciparum” value turned out to be 111. As to `C[C@@H]1CCC2[C@@H](C)[C@@H](OCCCCCn3cc[n+](-c4ccc5ccccc5n4)[c]3[Au-][c]3n(CCCCCO[C@H]4O[C@@H]5O[C@@]6(C)CCC7[C@H](C)CCC([C@H]4C)[C@]75OO6)cc[n+]3-c3ccc4ccccc4n3)O[C@@H]3O[C@@]4(C)CCC1[C@@]23OO4.[Cl-]` (some centres unmarked) [Aubis(5-Quin)], the “Selectivity Index Vero Cells/P. falciparum” value was found to be 53.

The values above are taken from article PMC7356589, “Hybrid Gold(I) NHC-Artemether Complexes to Target Falciparum Malaria Parasites” (Molecules, 2020).
